# Some of the results follow.
# Tests used:
# Assay in all cases: glycan array binding signal (z-score within array); higher = stronger binding
# Conditions in all cases: glycan notation: IUPAC condensed, linker removed
# [1] = target: Neu5Ac(a2-6)GlcNAc(b1-4)GlcNAc(b1-4)GlcNAc
# Method in brief: (§1)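 From the Consortium for Functional Glycomics database, 3228 arrays were curated, keeping only those whose protein sequence was available. Binding is given as a within-array Z-score averaged across arrays sharing a protein sequence and across linkers. Negative Z-scores can be read as non-binding.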
# Neu5Ac(a2-8)Neu5Ac = target: Neu5Ac(a2-8)Neu5Ac
# Method in brief: as §1
# [2] = target: Neu5Ac(a2-8)Neu5Ac(a2-3)Gal(b1-3)GalNAc(b1-4)[Neu5Ac(a2-3)]Gal(b1-4)Glc
# Method in brief: as §1
# [3] = target: Neu5Ac(a2-8)Neu5Ac(a2-3)Gal(b1-3)GalNAc(b1-4)[Neu5Ac(a2-8)Neu5Ac(a2-3)]Gal(b1-4)Glc
# Method in brief: as §1
# [4] = target: Neu5Ac(a2-8)Neu5Ac(a2-3)Gal(b1-4)Glc
# Method in brief: as §1
# [5] = target: Neu5Ac(a2-8)Neu5Ac(a2-3)Gal(b1-4)GlcNAc
# Method in brief: as §1
# [6] = target: Neu5Ac(a2-8)Neu5Ac(a2-3)[Gal(b1-3)GalNAc(b1-4)]Gal(b1-4)Glc
# Method in brief: as §1
# [7] = target: Neu5Ac(a2-8)Neu5Ac(a2-3)[GalNAc(b1-4)]Gal(b1-4)Glc
# Method in brief: as §1
# [8] = target: Neu5Ac(a2-8)Neu5Ac(a2-8)Neu5Ac
# Method in brief: as §1
# [9] = target: Neu5Ac(a2-8)Neu5Ac(a2-8)Neu5Ac(a2-3)Gal(b1-4)Glc
# Method in brief: as §1
# [10] = target: Neu5Ac(a2-8)Neu5Ac(a2-8)Neu5Ac(a2-3)[Gal(b1-3)GalNAc(b1-4)]Gal(b1-4)Glc
# Method in brief: as §1
# [11] = target: Neu5Ac(a2-8)Neu5Ac(a2-8)Neu5Ac(a2-3)[GalNAc(b1-4)]Gal(b1-4)Glc
# Method in brief: as §1
# [12] = target: Neu5Ac(a2-8)Neu5Ac(a2-8)Neu5Ac(a2-8)Neu5Ac(a2-3)[GalNAc(b1-4)]Gal(b1-4)Glc
# Method in brief: as §1
# [13] = target: Neu5Ac(a2-8)Neu5Gc(a2-3)Gal(b1-4)GlcNAc
# Method in brief: as §1
# [14] = target: Neu5Ac(b2-6)Gal(b1-4)GlcNAc
# Method in brief: as §1
# Neu5Ac(b2-6)GalNAc = target: Neu5Ac(b2-6)GalNAc
# Method in brief: as §1
# [15] = target: Neu5Ac9Ac(a2-3)Gal(b1-3)GlcNAc
# Method in brief: as §1
# [16] = target: Neu5Ac9Ac(a2-3)Gal(b1-4)GlcNAc
# Method in brief: as §1
# [17] = target: Neu5Ac9Ac(a2-6)Gal(b1-4)GlcNAc
# Method in brief: as §1
# [18] = target: Neu5Gc(a2-3)Gal(b1-3)GlcNAc
# Method in brief: as §1
# [19] = target: Neu5Gc(a2-3)Gal(b1-3)[Fuc(a1-4)]GlcNAc
# Method in brief: as §1
# Neu5Gc(a2-3)Gal(b1-4)Glc = target: Neu5Gc(a2-3)Gal(b1-4)Glc
# Method in brief: as §1
# [20] = target: Neu5Gc(a2-3)Gal(b1-4)GlcNAc
# Method in brief: as §1
# [21] = target: Neu5Gc(a2-3)Gal(b1-4)GlcNAc(b1-3)Gal(b1-4)GlcNAc(b1-2)Man(a1-3)[Neu5Gc(a2-3)Gal(b1-4)GlcNAc(b1-3)Gal(b1-4)GlcNAc(b1-2)Man(a1-6)]Man(b1-4)GlcNAc(b1-4)GlcNAc
# Method in brief: as §1
# [22] = target: Neu5Gc(a2-3)Gal(b1-4)[Fuc(a1-3)]GlcNAc
# Method in brief: as §1
# [23] = target: Neu5Gc(a2-6)Gal(b1-4)GlcNAc
# Method in brief: as §1
# Neu5Gc(a2-6)GalNAc = target: Neu5Gc(a2-6)GalNAc
# Method in brief: as §1
# [24] = target: Neu5Gc(a2-8)Neu5Ac(a2-3)Gal(b1-4)GlcNAc
# Method in brief: as §1
# [25] = target: Neu5Gc(a2-8)Neu5Gc(a2-3)Gal(b1-4)GlcNAc
# Method in brief: as §1
# [26] = target: Neu5Gc(a2-8)Neu5Gc(a2-3)Gal(b1-4)GlcNAc(b1-3)Gal(b1-4)GlcNAc
# Method in brief: as §1
# [27] = target: Neu5Gc(a2-8)Neu5Gc(a2-6)Gal(b1-4)GlcNAc
# Method in brief: as §1
# [28] = target: Neu5Gc(b2-6)Gal(b1-4)GlcNAc
# Method in brief: as §1
binder,measurement,setting,value
"HA-00510 (Pseudomonas aeruginosa), Q02V39_PSEAB (protein) GVPIVNIATPNGAGLSNNHFRDYNVGANGLILNNATGKTQGTQLGGIILGNPNLKGQAAQVILNQVTGGNRSTLAGYTEVAGQSARVIVANPHGITCQGCGFINTPRATLTTGKPIMDGQRLERFQVDGGDIVVEGAELNVGNLEQFDLITRSAKLNAKLYAKNLNIVTGRNDVQADSLQATPRAADGSEKPQLAIDSSALGGMYAGAIRLVGTEQGVGVKLAGDMAASGGDIRIDASGKLSLAQASSQGDLKIAAQAVELNGKTYAGGSAEIRSAEELVNRQS",glycan array binding signal (z-score),[1],-0.133
same,glycan array binding signal (z-score),Neu5Ac(a2-8)Neu5Ac,0.611
same,glycan array binding signal (z-score),[2],-0.026
same,glycan array binding signal (z-score),[3],0.659
same,glycan array binding signal (z-score),[4],-0.106
same,glycan array binding signal (z-score),[5],-0.473
same,glycan array binding signal (z-score),[6],0.223
same,glycan array binding signal (z-score),[7],-0.094
same,glycan array binding signal (z-score),[8],0.563
same,glycan array binding signal (z-score),[9],0.254
same,glycan array binding signal (z-score),[10],0.198
same,glycan array binding signal (z-score),[11],-0.401
same,glycan array binding signal (z-score),[12],-0.164
same,glycan array binding signal (z-score),[13],-1.15
same,glycan array binding signal (z-score),[14],-0.145
same,glycan array binding signal (z-score),Neu5Ac(b2-6)GalNAc,-0.254
same,glycan array binding signal (z-score),[15],0.99
same,glycan array binding signal (z-score),[16],0.419
same,glycan array binding signal (z-score),[17],-0.697
same,glycan array binding signal (z-score),[18],0.051
same,glycan array binding signal (z-score),[19],-0.054
same,glycan array binding signal (z-score),Neu5Gc(a2-3)Gal(b1-4)Glc,0.045
same,glycan array binding signal (z-score),[20],-0.181
same,glycan array binding signal (z-score),[21],-0.352
same,glycan array binding signal (z-score),[22],-0.624
same,glycan array binding signal (z-score),[23],0.471
same,glycan array binding signal (z-score),Neu5Gc(a2-6)GalNAc,-0.059
same,glycan array binding signal (z-score),[24],-0.4
same,glycan array binding signal (z-score),[25],-0.585
same,glycan array binding signal (z-score),[26],-1.26
same,glycan array binding signal (z-score),[27],-0.771
same,glycan array binding signal (z-score),[28],-0.019

# Some of the entries so far, tab-delimited.
binder	measurement	setting	value
HA-00510 (Pseudomonas aeruginosa), Q02V39_PSEAB (protein) GVPIVNIATPNGAGLSNNHFRDYNVGANGLILNNATGKTQGTQLGGIILGNPNLKGQAAQVILNQVTGGNRSTLAGYTEVAGQSARVIVANPHGITCQGCGFINTPRATLTTGKPIMDGQRLERFQVDGGDIVVEGAELNVGNLEQFDLITRSAKLNAKLYAKNLNIVTGRNDVQADSLQATPRAADGSEKPQLAIDSSALGGMYAGAIRLVGTEQGVGVKLAGDMAASGGDIRIDASGKLSLAQASSQGDLKIAAQAVELNGKTYAGGSAEIRSAEELVNRQS	glycan array binding signal (z-score)	[1]	-0.133
same	glycan array binding signal (z-score)	Neu5Ac(a2-8)Neu5Ac	0.611
same	glycan array binding signal (z-score)	[4]	-0.106
same	glycan array binding signal (z-score)	[6]	0.223
same	glycan array binding signal (z-score)	[15]	0.99
same	glycan array binding signal (z-score)	Neu5Gc(a2-6)GalNAc	-0.059
same	glycan array binding signal (z-score)	[26]	-1.26
